Laboratory results taken from paper PMC10919652.
No constants are given. Whether binding was seen depends on the method and setting. Binding seen in cells or lysates may run through a third protein. A result given as binding can be weak or reduced; the word gives no strength. Where a sequence is shown, tags or fusion partners need not be part of it.

Target: T1, Flag-tagged Tp53 (zebrafish Tumour protein p53) (zebrafish) (UniProt P79734)
T1 sequence: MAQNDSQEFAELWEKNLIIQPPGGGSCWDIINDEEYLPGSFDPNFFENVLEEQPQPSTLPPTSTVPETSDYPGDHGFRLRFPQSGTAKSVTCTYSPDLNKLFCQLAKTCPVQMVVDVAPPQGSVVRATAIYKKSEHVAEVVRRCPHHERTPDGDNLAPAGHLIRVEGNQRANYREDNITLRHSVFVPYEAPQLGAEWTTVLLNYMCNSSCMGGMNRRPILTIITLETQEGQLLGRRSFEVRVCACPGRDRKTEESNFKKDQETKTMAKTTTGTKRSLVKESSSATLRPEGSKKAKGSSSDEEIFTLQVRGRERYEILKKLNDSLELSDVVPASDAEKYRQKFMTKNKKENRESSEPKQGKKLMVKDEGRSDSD
Test: co-IP; HEK293T cells co-transfected with Myc-tagged Fancl and Flag-tagged Tp53 plasmids (10 ug in total); lysed in RIPA buffer 24 h after transfection; supernatant incubated with anti-Flag or Myc magnetic beads overnight at 4 °C; western blot

binding: binds
Substance: Myc-tagged Fancl (zebrafish Fanconi anemia complementation group L) (enzyme)
